The source of these data is US4379148A, “Analgesic and anti-inflammatory composition” (priority 1981, dated 1983).

The series is described as follows: in vivo. The note with it: mouse, po.

What is called LD50 is the dose at which mortality reaches 50%. `COc1ccc2cc([C@H](C)C(=O)O)ccc2c1` [Naproxen]: the median lethal dose (LD50) at 168 h worked out at 1180 mg/kg. In addition, the LD50 at 168 h (LD50 dose obtained experimentally, with emorfazone 240, p.o., combined with emorfazone 240 mg/kg) came out at 1200 mg/kg.
